Reference: patent EP1944295A1, “Non-racemic mixtures of (R)-N-piperidinyl-5-(4-chlorophenyl)1-(2,4-dichlorophenyl)-4,5-dihydro-1H-pyrazole-3-carboxamide and (S)-N-piperidinyl-5-(4-chlorophenyl)-1-(2,4-dichlorophenyl)-4,5-dihydro-1H-pyrazole-3-carboxamide” (Laboratorios del Dr. Esteve S.A., priority 2007, dated 2008)
At least one structure is not confirmed: it was looked up by name or label, or the drawing left a doubt.

How the values were obtained:
Format in all cases: in vivo, female Wistar rats
[1] = Feeding study: daily food intake of obese rats with access to highly palatable cafeteria diet; conditions: obese rats on cafeteria diet
[2] = Determination of carcass ash content; conditions: 10 and 30 mg/kg po once daily for 28 days, weight per rat, vs vehicle
[3] = Carcass total water content; conditions: weight per rat, vs vehicle
[4] = Determination of carcass protein content (Kjeldahl); conditions: 10 and 30 mg/kg po once daily for 28 days, weight per rat, vs vehicle
[5] = 10 mg/kg po once daily for 28 days
[6] = 30 mg/kg po once daily for 28 days

Row | Compound | daily food intake compared to the vehicle-treated control group [1, 5] | daily food intake compared to the vehicle-treated control group [1, 6] | ash content of the carcasses [2] | total water content of the carcasses [3, 5] | total water content of the carcasses [3, 6] | protein content of the carcasses [4]
1 | O=C(NN1CCCCC1)C1=NN(c2ccc(Cl)cc2Cl)[C@H](c2ccc(Cl)cc2)C1 [Compound B, (S)-N-piperidinyl-5-(4-chlorophenyl)-1-(2,4-dichlorophenyl)-4,5-dihydro-1H-pyrazole-3-carboxamide] | did not significantly alter food intake | significant compared to the vehicle-treated control group | did not significantly alter | did not significantly alter | did not significantly alter | did not significantly alter
2 | O=C(NN1CCCCC1)C1=NN(c2ccc(Cl)cc2Cl)[C@@H](c2ccc(Cl)cc2)C1 [Compound A, (R)-N-piperidinyl-5-(4-chlorophenyl)-1-(2,4-dichlorophenyl)-4,5-dihydro-1H-pyrazole-3-carboxamide] | significantly reduced | significantly reduced | did not significantly alter | did not significantly alter | slightly, but significantly, decreased | did not significantly alter
